The list shows a part of the results. The main result of the screen is listed elsewhere. These columns were measured beside it and carry no call. The list favours compounds with an active or inconclusive main result. Potencies come from curve fits of mixed quality, noted in brackets.
Assay: qHTS Assay for Lipid Storage Modulators in Drosophila S3 Cells;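 for cell number change: cells counted by Cell Tracker Red CMTPX staining in the red channel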
Settings: BODIPY lipid droplet fluorescence, 18-24 h; for cell number change: measured here: cell count max response, cells fed with added oleic acid
Procedure, shortened: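 Laser-scanning cytometry quantifies lipid droplet accumulation (500–530 nm total intensity; droplet/cell object ratio) in oleic acid-fed (400 uM added) Drosophila S3 cells treated with a concentration series. 20 uM Triacsin C defined 100% inhibition.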

[1] = measured here: lipid fluorescence (Fed channel) AC50, cells fed with added oleic acid
[2] = measured here: cell number channel AC50, cells fed with added oleic acid

Row | Compound | cell number change | AC50 [1] | AC50 [2]
1 | Cc1ccc(CNC(=O)CN2C(=O)C3(OCCCO3)c3ccccc32)cc1 | 17.9% |  | 
2 | Cc1cnc(C(=O)OCC(=O)NC(C)CCc2ccccc2)cn1 (configuration not stated) | 56.7% | 8.2 µM [rising, partial curve] | 
3 | C#CCOCCOCCOCCNc1nc(N2CCN(C(=O)CCCCCCCCCCNC(=O)[C@H](CO)n3cc(CCCSC)nn3)CC2)nc(N2CCN(C(=O)CCCCCCCCCCNC(=O)[C@H](CO)n3cc(CCCSC)nn3)CC2)n1 | 9.37% |  | 
4 | CCOC(=O)c1sc(NC(=O)CCN2CCCCCC2)c(C(=O)OCC)c1C | -30.2% |  | 
5 | CN1CCN(C(=O)c2ccccc2NC(=O)c2cccs2)CC1 | -12.7% | 0.0259 µM [falling, full curve, poor fit] | 
6 | CCOC(=O)C1=C(CSc2nc(C)cc(C)c2C#N)OC(N)=C(C#N)C1c1cccs1 (configuration not stated) | 9.66% | 6.51 µM [falling, partial curve, poor fit] | 
7 | COC(=O)c1ccc(N=NNc2ccc(C(=O)OC)cc2)cc1 | -12.3% | 6.51 µM [rising, single point] | 6.51 µM [rising, single point]
8 | CC(C)(C)C(=O)N1CCN(c2ccc([N+](=O)[O-])c(NCc3cccnc3)c2)CC1 | -23.4% | 25.9 µM [falling, single point] | 
9 | CC1CCN(C(=O)c2ccccc2NC(=O)Nc2ccccc2)CC1 | -18.4% |  | 
10 | COC(=O)c1ccc2c(=O)n(CCO)c(=S)[nH]c2c1 | -28.9% | 20.6 µM [rising, partial curve] | 
11 | Cc1ccc(S(=O)(=O)N2CCC(C(=O)Nc3ccc(S(=O)(=O)N4CCCC4)cc3)CC2)cc1C | 10.8% |  | 
12 | Cc1ccsc1/C=N/NC(=O)c1nnn(-c2nonc2N)c1CN(C)c1ccccc1 | 14.9% | 23.1 µM [falling, single point] | 
13 | CC(=O)c1cccc(NC(=O)N2CCCC2C(=O)Nc2cccc(C)c2)c1 (configuration not stated) | 1.09% | 1.84 µM [rising, partial curve] | 
14 | CCCOC(=O)C1=C(C)NC2=C(C(=O)CCC2)C1c1ccc(N(C)C)cc1 (configuration not stated) | 4.4% | 3.26 µM [rising, single point] | 
15 | Cc1ccc(C(=O)O/N=C(\N)Cc2ccc([N+](=O)[O-])cc2)c(Cl)c1 | 17.8% | 0.00731 µM [rising, full curve, poor fit] | 
16 | CCN(CC)CC(=O)Nc1sc(C)c(C)c1C(=O)c1ccc(C)cc1 |  | 2.59 µM [rising, single point] | 
17 | CCOc1ccc(S(=O)(=O)Nc2ccc3c(c2)OCO3)c2cccnc12 | -31.2% | 1.3 µM [falling, full curve] | 0.259 µM [falling, full curve, poor fit]
18 | CCCCNC(=O)COC(=O)c1ccccc1F | 1.17% | 0.00517 µM [falling, full curve, poor fit] | 
19 | CN(C(=O)CSc1nnnn1C)C1(C#N)CCCCC1 | -49.4% | 0.184 µM [falling, full curve, poor fit] | 16.4 µM [falling, single point]

In another format: 11 of the compounds above.
Row,Compound,cell number change,AC50 [1],AC50 [2]
1,Cc1ccc(CNC(=O)CN2C(=O)C3(OCCCO3)c3ccccc32)cc1,17.9%,,
2,Cc1cnc(C(=O)OCC(=O)NC(C)CCc2ccccc2)cn1 (configuration not stated),56.7%,"8.2 µM [rising, partial curve]",
5,CN1CCN(C(=O)c2ccccc2NC(=O)c2cccs2)CC1,-12.7%,"0.0259 µM [falling, full curve, poor fit]",
7,COC(=O)c1ccc(N=NNc2ccc(C(=O)OC)cc2)cc1,-12.3%,"6.51 µM [rising, single point]","6.51 µM [rising, single point]"
9,CC1CCN(C(=O)c2ccccc2NC(=O)Nc2ccccc2)CC1,-18.4%,,
10,COC(=O)c1ccc2c(=O)n(CCO)c(=S)[nH]c2c1,-28.9%,"20.6 µM [rising, partial curve]",
11,Cc1ccc(S(=O)(=O)N2CCC(C(=O)Nc3ccc(S(=O)(=O)N4CCCC4)cc3)CC2)cc1C,10.8%,,
13,CC(=O)c1cccc(NC(=O)N2CCCC2C(=O)Nc2cccc(C)c2)c1 (configuration not stated),1.09%,"1.84 µM [rising, partial curve]",
14,CCCOC(=O)C1=C(C)NC2=C(C(=O)CCC2)C1c1ccc(N(C)C)cc1 (configuration not stated),4.4%,"3.26 µM [rising, single point]",
18,CCCCNC(=O)COC(=O)c1ccccc1F,1.17%,"0.00517 µM [falling, full curve, poor fit]",
19,CN(C(=O)CSc1nnnn1C)C1(C#N)CCCCC1,-49.4%,"0.184 µM [falling, full curve, poor fit]","16.4 µM [falling, single point]"

Later entries:

Row | Compound | cell number change | AC50 [1] | AC50 [2]
20 | COc1ccccc1N1CCN(Cc2cc(Br)c(O)c3ncccc23)CC1 | -20.2% | 3.66 µM [falling, full curve, poor fit] | 
21 | CC(C)(C)c1cnnn1-c1ccc(NC(=O)c2ccc3c(c2)OCO3)cc1 | 118% | 2.91 µM [rising, partial curve] | 11.6 µM [rising, partial curve]
22 | CCN(CC)C(=O)CSc1nc(Cc2ccccc2)nc2ccccc12 | -10.8% | 0.58 µM [rising, single point] | 
23 | Cc1nnc(C)c2c(C)n(-c3ccccc3)c(C)c12 | 16.7% |  | 0.651 µM [rising, single point]
24 | CSc1ccc(/C=C2/C(=N)N3N=C(CC(=O)N4CCCC4)SC3=NC2=O)cc1 | -7.67% |  | 
25 | C=CCn1c(Br)nc2c1c(=O)[nH]c(=O)n2C | -98.1% | 0.651 µM [falling, single point] | 2.31 µM [falling, partial curve]
26 | CCOC(=O)c1ccc(CNC(=O)CSc2nnc(-c3ccncc3)o2)cc1 | 52.8% | 1.64 µM [rising, partial curve, poor fit] | 18.4 µM [rising, single point]
27 | CCOC(=O)c1c(NC(=O)c2nn(CC)cc2Br)sc(C)c1C |  | 0.651 µM [rising, full curve] | 4.61 µM [rising, partial curve]
28 | COc1ccc(C(=O)OCC(=O)NCCN2C(=O)CSC2=O)cc1 | -4.47% |  | 
29 | Cc1ccc(Cl)cc1Nc1nc(-c2sc(NC(=O)c3ccccc3)nc2C)cs1 | -49.2% | 0.82 µM [falling, full curve, poor fit] | 16.4 µM [falling, partial curve]
30 | COc1cccc(OCCSc2nc3ccccc3c(=O)[nH]2)c1 | 69.1% |  | 29.1 µM [rising, single point]
31 | Cc1cccc(NC(=O)/C(C#N)=C/c2ccc[nH]2)c1C | 15.5% | 29.1 µM [rising, single point] | 
32 | Cc1cccc(C(=O)Nc2ccn(C)n2)c1 |  | 13 µM [rising, single point] | 
33 | COC(=O)/C=C1\N/C(=N/c2nc(C)c3cc(OC)ccc3n2)NC1=O | -4.05% |  | 
34 | CCOC(=O)[C@H]1[C@H]2COc3cc(OC)ccc3[C@@H]2N2C(=O)c3ccc(C)cc3NC(=O)[C@@]12C | -47.5% | 6.51 µM [falling, single point] | 29.1 µM [falling, single point]
35 | CCOC(=O)C(Cc1ccccc1)NC(=O)CCc1c(C)nc2nc(C)nn2c1C (configuration not stated) | 51.9% |  | 14.6 µM [rising, partial curve, poor fit]
36 | COc1ccc2[nH]c(=O)c(CN(C(C)=O)C3CCCCC3)cc2c1 | 39.6% |  | 10.3 µM [rising, single point]
37 | Cn1c(SCC(=O)Nc2ccc(Cl)cc2)nc(O)cc1=O | -15.8% | 1.03 µM [falling, single point] | 

Source: PubChem BioAssay AID2685 (National Center for Advancing Translational Sciences (NCATS), 2010)
